The supplement of paper PMC10849652
The other results are listed elsewhere or left out.

By UniProt entry, the sequences of proteins in these tests, tags left out. Where a name states a change or a piece, a line headed by the entry shows the natural chain unless it says otherwise.
UniProt Q8IVM0: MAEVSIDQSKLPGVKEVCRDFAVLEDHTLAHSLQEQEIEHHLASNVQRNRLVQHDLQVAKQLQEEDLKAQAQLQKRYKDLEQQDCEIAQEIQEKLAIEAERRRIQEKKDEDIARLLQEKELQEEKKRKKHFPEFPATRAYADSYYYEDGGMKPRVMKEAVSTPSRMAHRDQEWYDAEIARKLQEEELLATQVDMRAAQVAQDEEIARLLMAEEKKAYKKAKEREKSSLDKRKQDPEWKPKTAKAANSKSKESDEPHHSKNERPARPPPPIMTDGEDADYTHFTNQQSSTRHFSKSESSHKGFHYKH
UniProt P19397: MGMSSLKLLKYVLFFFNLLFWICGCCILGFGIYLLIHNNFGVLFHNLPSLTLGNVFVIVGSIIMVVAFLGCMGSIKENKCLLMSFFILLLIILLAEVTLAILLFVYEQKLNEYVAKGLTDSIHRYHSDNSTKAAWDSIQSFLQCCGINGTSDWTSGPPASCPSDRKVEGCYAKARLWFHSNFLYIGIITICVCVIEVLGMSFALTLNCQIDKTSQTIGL
UniProt O60583: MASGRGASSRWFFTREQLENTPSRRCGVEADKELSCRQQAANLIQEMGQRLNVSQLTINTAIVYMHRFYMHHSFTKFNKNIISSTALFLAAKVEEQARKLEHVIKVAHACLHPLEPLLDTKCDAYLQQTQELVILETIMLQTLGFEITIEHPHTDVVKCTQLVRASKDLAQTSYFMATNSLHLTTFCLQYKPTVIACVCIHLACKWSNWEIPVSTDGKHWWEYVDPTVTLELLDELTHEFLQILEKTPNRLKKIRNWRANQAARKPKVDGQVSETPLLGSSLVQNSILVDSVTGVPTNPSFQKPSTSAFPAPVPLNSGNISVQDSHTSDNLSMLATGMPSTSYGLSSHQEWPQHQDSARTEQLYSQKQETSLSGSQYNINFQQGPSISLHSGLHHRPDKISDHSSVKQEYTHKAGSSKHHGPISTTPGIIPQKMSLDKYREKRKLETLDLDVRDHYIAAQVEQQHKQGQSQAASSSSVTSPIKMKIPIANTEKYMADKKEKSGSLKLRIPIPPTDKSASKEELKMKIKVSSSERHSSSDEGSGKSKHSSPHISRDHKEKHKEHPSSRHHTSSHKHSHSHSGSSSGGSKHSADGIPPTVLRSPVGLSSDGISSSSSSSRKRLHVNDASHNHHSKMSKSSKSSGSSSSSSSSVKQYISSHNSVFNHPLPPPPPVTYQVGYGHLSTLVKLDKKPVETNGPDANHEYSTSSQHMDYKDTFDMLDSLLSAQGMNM
UniProt P0C221: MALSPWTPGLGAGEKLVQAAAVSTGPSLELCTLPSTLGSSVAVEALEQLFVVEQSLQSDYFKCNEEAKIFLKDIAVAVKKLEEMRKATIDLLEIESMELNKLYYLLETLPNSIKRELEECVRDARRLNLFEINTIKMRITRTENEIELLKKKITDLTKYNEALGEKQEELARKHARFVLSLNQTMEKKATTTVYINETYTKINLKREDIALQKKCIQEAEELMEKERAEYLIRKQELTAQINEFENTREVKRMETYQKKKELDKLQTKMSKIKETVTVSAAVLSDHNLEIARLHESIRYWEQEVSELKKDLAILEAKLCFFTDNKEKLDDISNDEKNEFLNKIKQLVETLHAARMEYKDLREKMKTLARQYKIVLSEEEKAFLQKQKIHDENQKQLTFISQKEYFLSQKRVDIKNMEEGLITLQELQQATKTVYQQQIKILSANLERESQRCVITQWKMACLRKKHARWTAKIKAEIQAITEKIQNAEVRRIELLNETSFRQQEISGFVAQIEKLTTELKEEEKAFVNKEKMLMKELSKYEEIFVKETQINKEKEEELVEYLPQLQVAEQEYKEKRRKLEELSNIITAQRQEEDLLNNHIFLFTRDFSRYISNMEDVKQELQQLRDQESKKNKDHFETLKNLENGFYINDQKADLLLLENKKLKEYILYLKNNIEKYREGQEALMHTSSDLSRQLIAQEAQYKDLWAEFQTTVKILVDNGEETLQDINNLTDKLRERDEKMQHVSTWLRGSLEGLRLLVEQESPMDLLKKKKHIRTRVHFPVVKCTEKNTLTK
UniProt P30279, whole entry, looked up: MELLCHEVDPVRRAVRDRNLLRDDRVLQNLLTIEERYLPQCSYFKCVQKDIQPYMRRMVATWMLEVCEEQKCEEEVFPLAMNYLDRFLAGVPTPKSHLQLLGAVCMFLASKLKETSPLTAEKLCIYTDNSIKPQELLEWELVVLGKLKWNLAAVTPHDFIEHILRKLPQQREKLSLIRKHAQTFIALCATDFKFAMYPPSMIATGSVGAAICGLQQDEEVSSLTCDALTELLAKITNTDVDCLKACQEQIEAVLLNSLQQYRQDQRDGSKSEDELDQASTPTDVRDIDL
UniProt Q8TD31: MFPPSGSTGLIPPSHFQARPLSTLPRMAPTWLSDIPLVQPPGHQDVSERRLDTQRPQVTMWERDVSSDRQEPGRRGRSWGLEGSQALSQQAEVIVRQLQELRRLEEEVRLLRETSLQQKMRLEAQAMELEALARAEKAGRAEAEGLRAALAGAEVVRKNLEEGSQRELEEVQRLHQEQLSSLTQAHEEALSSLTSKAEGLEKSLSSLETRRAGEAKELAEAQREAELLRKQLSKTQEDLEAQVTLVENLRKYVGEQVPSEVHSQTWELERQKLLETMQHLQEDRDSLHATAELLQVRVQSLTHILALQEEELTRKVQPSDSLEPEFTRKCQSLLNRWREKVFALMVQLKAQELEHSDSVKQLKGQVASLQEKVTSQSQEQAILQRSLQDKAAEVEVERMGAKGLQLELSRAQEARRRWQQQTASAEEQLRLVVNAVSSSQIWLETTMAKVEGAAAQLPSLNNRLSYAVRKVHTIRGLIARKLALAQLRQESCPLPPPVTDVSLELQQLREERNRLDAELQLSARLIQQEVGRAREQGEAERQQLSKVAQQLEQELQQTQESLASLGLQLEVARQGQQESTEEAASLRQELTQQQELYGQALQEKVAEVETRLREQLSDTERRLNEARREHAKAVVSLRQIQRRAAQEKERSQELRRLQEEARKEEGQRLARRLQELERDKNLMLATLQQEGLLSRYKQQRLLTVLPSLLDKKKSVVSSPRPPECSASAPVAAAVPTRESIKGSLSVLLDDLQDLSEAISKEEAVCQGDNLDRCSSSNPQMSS
UniProt Q92526, whole entry, looked up: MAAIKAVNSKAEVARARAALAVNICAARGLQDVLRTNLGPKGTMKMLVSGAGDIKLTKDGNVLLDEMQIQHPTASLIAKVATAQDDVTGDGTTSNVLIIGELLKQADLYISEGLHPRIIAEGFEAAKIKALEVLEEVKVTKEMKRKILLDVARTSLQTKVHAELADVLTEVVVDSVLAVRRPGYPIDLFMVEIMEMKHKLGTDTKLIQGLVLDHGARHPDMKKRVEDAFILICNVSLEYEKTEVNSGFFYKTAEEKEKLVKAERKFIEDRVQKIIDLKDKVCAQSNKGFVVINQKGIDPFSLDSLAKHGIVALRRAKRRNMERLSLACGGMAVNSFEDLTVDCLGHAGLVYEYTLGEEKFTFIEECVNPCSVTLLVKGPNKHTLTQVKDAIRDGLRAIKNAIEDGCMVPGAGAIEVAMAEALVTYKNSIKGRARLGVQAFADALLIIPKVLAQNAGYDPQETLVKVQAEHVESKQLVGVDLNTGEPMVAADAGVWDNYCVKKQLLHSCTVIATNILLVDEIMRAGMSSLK
UniProt P83916, whole entry, looked up: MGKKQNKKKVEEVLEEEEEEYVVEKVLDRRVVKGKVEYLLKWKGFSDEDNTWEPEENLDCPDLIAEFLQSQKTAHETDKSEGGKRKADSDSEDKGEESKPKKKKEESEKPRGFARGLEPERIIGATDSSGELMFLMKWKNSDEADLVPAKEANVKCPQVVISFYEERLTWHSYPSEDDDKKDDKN
UniProt Q8IWD4: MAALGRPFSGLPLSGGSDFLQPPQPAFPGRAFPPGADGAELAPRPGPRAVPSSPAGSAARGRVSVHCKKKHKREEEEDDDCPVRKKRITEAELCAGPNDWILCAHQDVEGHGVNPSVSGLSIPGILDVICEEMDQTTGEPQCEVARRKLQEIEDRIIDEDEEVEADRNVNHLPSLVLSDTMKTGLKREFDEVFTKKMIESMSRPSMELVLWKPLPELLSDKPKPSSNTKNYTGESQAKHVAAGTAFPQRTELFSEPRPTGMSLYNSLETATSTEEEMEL
UniProt Q2TAC2: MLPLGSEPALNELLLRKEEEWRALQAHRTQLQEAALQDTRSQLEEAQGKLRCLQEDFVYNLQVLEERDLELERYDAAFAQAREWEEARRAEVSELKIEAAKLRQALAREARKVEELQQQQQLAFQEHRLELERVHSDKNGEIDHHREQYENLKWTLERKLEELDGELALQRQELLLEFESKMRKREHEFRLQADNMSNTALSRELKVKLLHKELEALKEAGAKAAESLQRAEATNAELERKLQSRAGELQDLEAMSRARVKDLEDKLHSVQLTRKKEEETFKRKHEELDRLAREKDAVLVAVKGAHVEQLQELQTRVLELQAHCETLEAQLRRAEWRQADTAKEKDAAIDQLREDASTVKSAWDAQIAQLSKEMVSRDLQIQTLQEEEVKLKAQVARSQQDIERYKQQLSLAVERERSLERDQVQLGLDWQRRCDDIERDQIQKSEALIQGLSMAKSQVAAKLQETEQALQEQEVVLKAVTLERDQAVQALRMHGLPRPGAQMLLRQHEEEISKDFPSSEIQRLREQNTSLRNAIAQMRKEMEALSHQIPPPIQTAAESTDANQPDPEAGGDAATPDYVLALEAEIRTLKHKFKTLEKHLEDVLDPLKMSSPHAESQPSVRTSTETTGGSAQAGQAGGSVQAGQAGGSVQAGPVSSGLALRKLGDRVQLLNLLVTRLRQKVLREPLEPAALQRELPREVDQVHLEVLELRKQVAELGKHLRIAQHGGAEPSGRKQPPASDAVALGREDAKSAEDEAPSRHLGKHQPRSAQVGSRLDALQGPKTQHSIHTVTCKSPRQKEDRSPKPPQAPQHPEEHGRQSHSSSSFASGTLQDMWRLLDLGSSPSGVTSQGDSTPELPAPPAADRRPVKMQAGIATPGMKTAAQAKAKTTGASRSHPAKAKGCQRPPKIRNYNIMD
UniProt Q8ND76: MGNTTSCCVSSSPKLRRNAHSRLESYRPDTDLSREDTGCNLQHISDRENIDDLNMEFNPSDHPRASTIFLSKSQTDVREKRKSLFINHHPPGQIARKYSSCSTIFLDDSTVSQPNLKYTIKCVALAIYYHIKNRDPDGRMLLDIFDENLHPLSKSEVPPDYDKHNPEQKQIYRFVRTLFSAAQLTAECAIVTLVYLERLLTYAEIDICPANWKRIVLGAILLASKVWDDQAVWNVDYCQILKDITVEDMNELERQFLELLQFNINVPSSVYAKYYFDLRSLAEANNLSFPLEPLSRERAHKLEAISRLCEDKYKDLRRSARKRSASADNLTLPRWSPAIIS
UniProt Q96BQ5: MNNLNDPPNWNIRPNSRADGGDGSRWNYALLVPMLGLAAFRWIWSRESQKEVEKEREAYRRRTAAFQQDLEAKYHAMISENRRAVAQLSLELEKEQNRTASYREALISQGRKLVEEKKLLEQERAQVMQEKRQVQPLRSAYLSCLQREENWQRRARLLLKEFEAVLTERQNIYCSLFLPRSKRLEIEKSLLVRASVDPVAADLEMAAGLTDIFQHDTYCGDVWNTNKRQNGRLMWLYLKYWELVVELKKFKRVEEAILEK
UniProt P20138, whole entry, looked up: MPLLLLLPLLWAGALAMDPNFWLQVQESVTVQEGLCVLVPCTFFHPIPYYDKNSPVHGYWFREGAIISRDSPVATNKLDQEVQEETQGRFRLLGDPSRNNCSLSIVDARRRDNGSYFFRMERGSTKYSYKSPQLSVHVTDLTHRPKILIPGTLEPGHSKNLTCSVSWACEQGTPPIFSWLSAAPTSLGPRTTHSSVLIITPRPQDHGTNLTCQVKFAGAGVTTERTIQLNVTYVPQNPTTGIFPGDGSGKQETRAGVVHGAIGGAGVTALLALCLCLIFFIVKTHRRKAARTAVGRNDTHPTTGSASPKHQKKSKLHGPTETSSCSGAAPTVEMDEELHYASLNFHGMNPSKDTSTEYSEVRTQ
UniProt P33681, whole entry, looked up: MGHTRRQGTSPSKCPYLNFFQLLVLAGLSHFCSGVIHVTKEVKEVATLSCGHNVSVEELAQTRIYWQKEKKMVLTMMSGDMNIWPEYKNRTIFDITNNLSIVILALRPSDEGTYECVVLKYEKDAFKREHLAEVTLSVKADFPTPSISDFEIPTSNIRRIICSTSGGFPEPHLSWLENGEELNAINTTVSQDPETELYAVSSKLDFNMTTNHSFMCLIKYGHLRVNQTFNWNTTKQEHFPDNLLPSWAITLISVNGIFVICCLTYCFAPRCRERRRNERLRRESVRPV

Legend:
Experiment in all cases: log2 fold change, soluble protein after heating vs DMSO (PISA); higher = thermal stabilisation; K562 lysate, 10 uM; active = over 0.2 and 3.5 SD of the protein, either way, in both replicates (recomputed)
lapatinib = compound: CS(=O)(=O)CCNCc1ccc(-c2ccc3ncnc(Nc4ccc(OCc5cccc(F)c5)c(Cl)c4)c3c2)o1 [lapatinib]
Outline: (§1)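 Quantification was by TMTpro 16plex LC-MS/MS with equalised channel sums, applied to the supernatant after 21,000xg for 90 min. Samples were crude K562 extract at 1 mg/mL protein in PBS pH 7.4 with 1 mM MgCl2, treated with 10 μM compound for 30 min, heated for 3 min across 48°C-58°C, pooled and brought to 0.5% NP-40 at 4°C. Values are log-two fold changes in thermal stability relative to solvent controls, from duplicates.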

pictilisib = compound: CS(=O)(=O)N1CCN(Cc2cc3nc(-c4cccc5[nH]ncc45)nc(N4CCOCC4)c3s2)CC1 [pictilisib]
Outline: as §1

crizotinib = compound: C[C@@H](Oc1cc(-c2cnn(C3CCNCC3)c2)cnc1N)c1c(Cl)ccc(F)c1Cl [crizotinib]
Outline: as §1

tozasertib = compound: Cc1cc(Nc2cc(N3CCN(C)CC3)nc(Sc3ccc(NC(=O)C4CC4)cc3)n2)n[nH]1 [tozasertib]
Outline: as §1

doramapimod = compound: Cc1ccc(-n2nc(C(C)(C)C)cc2NC(=O)Nc2ccc(OCCN3CCOCC3)c3ccccc23)cc1 [doramapimod]
Outline: as §1

bafetinib = compound: Cc1ccc(NC(=O)c2ccc(CN3CC[C@H](N(C)C)C3)c(C(F)(F)F)c2)cc1Nc1nccc(-c2cncnc2)n1 [bafetinib]
Outline: as §1

nilotinib = compound: Cc1cn(-c2cc(NC(=O)c3ccc(C)c(Nc4nccc(-c5cccnc5)n4)c3)cc(C(F)(F)F)c2)cn1 [nilotinib]
Outline: as §1

[1] = compound: Cc1nc(Nc2n[nH]c3c2CN(C(=O)N[C@H](CN(C)C)c2ccccc2)C3(C)C)c2sccc2n1
Outline: as §1

[2] = compound: Cc1ncc(-c2ccnc(Nc3ccc(S(C)(=O)=O)cc3)n2)n1C(C)C
Outline: as §1

quisinostat = compound: Cn1cc(CNCC2CCN(c3ncc(C(=O)NO)cn3)CC2)c2ccccc21 [quisinostat]
Outline: as §1

tipifarnib = compound: Cn1cncc1[C@@](N)(c1ccc(Cl)cc1)c1ccc2c(c1)c(-c1cccc(Cl)c1)cc(=O)n2C [tipifarnib]
Outline: as §1

[3] = compound: NC(=O)Nc1cc(-c2cccc(F)c2)sc1C(=O)N[C@H]1CCCNC1
Outline: as §1

[4] = compound: NC(=O)c1cnc(N[C@@H]2CCCC[C@@H]2N)nc1Nc1cccc(-n2nccn2)c1
Outline: as §1

[5] = compound: NC1(c2ccc(-c3nc4ccn5c(=O)[nH]nc5c4cc3-c3ccccc3)cc2)CCC1
Outline: as §1

[6] = compound: C[C@H](C1=CC=C(C=C1)C(=O)NC2=C3C=CNC3=NC=C2)N
Outline: as §1

gandotinib = compound: Cc1cc(Nc2cc(CN3CCOCC3)c3nc(C)c(Cc4ccc(Cl)cc4F)n3n2)n[nH]1 [gandotinib]
Outline: as §1

[7] = compound: Cc1cccc(CC(=O)N2CCc3c2ccc(-c2cn(C)c4ncnc(N)c24)c3F)n1
Outline: as §1

duvelisib = compound: C[C@H](Nc1ncnc2nc[nH]c12)c1cc2cccc(Cl)c2c(=O)n1-c1ccccc1 [duvelisib]
Outline: as §1

dasatinib = compound: Cc1nc(Nc2ncc(C(=O)Nc3c(C)cccc3Cl)s2)cc(N2CCN(CCO)CC2)n1 [dasatinib]
Outline: as §1

[8] = compound: Cn1cc(-c2ccc3c(c2)CCN3C(=O)Cc2cccc(C(F)(F)F)c2)c2c(N)ncnc21
Outline: as §1

Target	log2 fold change (lapatinib)	log2 fold change (pictilisib)	log2 fold change (crizotinib)	log2 fold change (tozasertib)	log2 fold change (doramapimod)	log2 fold change (bafetinib)	log2 fold change (nilotinib)	log2 fold change [1]	log2 fold change [2]	log2 fold change (quisinostat)	log2 fold change (tipifarnib)	log2 fold change [3]	log2 fold change [4]	log2 fold change [5]	log2 fold change [6]	log2 fold change (gandotinib)	log2 fold change [7]	log2 fold change (duvelisib)	log2 fold change (dasatinib)	log2 fold change [8]
CCDC50 (UniProt Q8IVM0)	inactive: -0.082	inactive: 0.071	inactive: 0.04	inactive: -0.137	inactive: -0.033	inactive: -0.375	inactive: 0.108	inactive: 0.213	inactive: -0.099	inactive: 0.231	inactive: -0.03	inactive: 0.001	inactive: 0.043	inactive: 0.072	–	–	–	–	–	–
CD53 (UniProt P19397)	inactive: -0.001	inactive: -0.176	inactive: -0.048	inactive: 0.043	inactive: 0.085	inactive: -0.009	inactive: -0.085	inactive: 0.037	inactive: -0.014	inactive: -0.141	inactive: 0.006	inactive: -0.017	inactive: -0.045	inactive: 0.008	inactive: -0.169	inactive: 0.097	inactive: 0.012	–	–	–
CCNT2 (UniProt O60583)	inactive: 0.094	inactive: -0.04	inactive: 0.066	inactive: 0.055	inactive: -0.038	inactive: -0.011	inactive: -0.165	inactive: -0.131	inactive: 0.114	inactive: 0	inactive: -0.053	inactive: 0.141	inactive: 0.105	–	–	–	–	inactive: -0.078	inactive: 0.066	inactive: 0.037
CCDC175 (UniProt P0C221)	inactive: -0.177	–	–	inactive: -0.077	–	–	–	–	–	–	–	–	inactive: 0.117	–	inactive: -0.261	inactive: 0.256	inactive: 0.329	–	–	–
CCND2 (UniProt P30279)	inactive: 0.082	inactive: -0.074	inactive: 0.024	–	inactive: -0.023	inactive: 0	inactive: 0.094	inactive: -0.001	inactive: -0.081	inactive: -0.03	inactive: 0.028	inactive: 0.044	inactive: 0.017	inactive: -0.078	–	–	–	inactive: 0.059	inactive: 0.015	inactive: 0.069
CCHCR1 isoform 2 (UniProt Q8TD31)	–	inactive: -0.022	inactive: -0.055	inactive: -0.003	inactive: -0.086	inactive: -0.149	inactive: -0.156	inactive: 0.01	inactive: -0.195	inactive: 0.053	inactive: -0.347	inactive: 0.095	–	inactive: 0.09	inactive: -0.005	inactive: -0.068	inactive: 0.072	–	–	–
CCDC9, A0A2R8Y4Z8	inactive: 0.215	inactive: 0.08	inactive: 0.236	–	inactive: -0.195	inactive: -0.154	–	–	–	inactive: 0.023	–	inactive: 0.357	inactive: -0.45	–	–	–	–	inactive: -0.044	inactive: 0.303	inactive: 0.065
CCT6B isoform 3 (UniProt Q92526)	inactive: -0.114	–	–	–	–	–	–	–	–	–	–	–	inactive: 0.099	–	–	–	–	inactive: 0.092	inactive: -0.053	inactive: -0.084
CBX1 (UniProt P83916)	inactive: 0.052	inactive: -0.006	inactive: 0.023	inactive: -0.05	inactive: -0.034	inactive: 0.025	inactive: 0.006	inactive: -0.003	inactive: 0	inactive: -0.004	inactive: -0.008	inactive: -0.004	inactive: 0.062	inactive: 0.012	active: 0.279	inactive: -0.143	inactive: -0.138	inactive: 0.03	inactive: 0.017	inactive: -0.027
CCDC117 (UniProt Q8IWD4)	inactive: 0.011	inactive: 0.016	inactive: -0.101	inactive: -0.009	inactive: 0.041	inactive: 0.032	inactive: -0.071	inactive: 0.032	inactive: 0.024	inactive: -0.143	inactive: 0.006	inactive: 0.009	inactive: -0.017	inactive: -0.01	inactive: -0.005	inactive: -0.003	inactive: -0.02	inactive: -0.006	inactive: 0.088	inactive: 0.011
CCDC57 (UniProt Q2TAC2)	inactive: -0.083	inactive: -0.04	–	inactive: 0.118	–	inactive: -0.086	inactive: 0.044	inactive: -0.044	inactive: 0.015	–	inactive: -0.005	–	inactive: -0.025	–	inactive: -0.1	inactive: 0.117	inactive: 0.002	inactive: -0.008	inactive: -0.037	inactive: -0.049
CCNY (UniProt Q8ND76)	inactive: -0.061	inactive: -0.044	inactive: -0.035	inactive: 0.056	inactive: 0.033	inactive: -0.073	inactive: 0.017	inactive: 0.016	inactive: 0.05	inactive: -0.216	inactive: 0.057	inactive: 0.077	inactive: -0.022	inactive: 0.025	inactive: -0.094	inactive: 0.081	inactive: 0.054	inactive: -0.057	inactive: -0.021	inactive: 0.065
CCDC127 (UniProt Q96BQ5)	inactive: 0.044	inactive: 0.005	inactive: 0.057	inactive: 0.089	inactive: 0.074	inactive: -0.091	–	–	–	inactive: 0.035	–	inactive: -0.029	inactive: 0.039	inactive: -0.008	inactive: 0	inactive: 0.11	inactive: 0.082	inactive: 0.076	inactive: -0.001	inactive: 0.004
CD33 (UniProt P20138)	inactive: 0.014	–	inactive: 0.316	–	inactive: 0.036	–	inactive: -0.005	inactive: 0.006	inactive: -0.066	inactive: 0.261	inactive: -0.131	inactive: -0.263	inactive: -0.031	–	inactive: 0.048	inactive: -0.024	inactive: 0.075	inactive: -0.028	inactive: 0.082	inactive: 0.008
CD80 (UniProt P33681)	inactive: 0.122	–	inactive: -0.007	inactive: 0.088	inactive: -0.008	–	inactive: 0.259	inactive: -0.065	inactive: -0.333	inactive: 0.025	inactive: 0.023	inactive: -0.002	inactive: 0.086	inactive: -0.03	active: 0.395	inactive: -0.086	inactive: 0.016	inactive: 0.104	inactive: -0.015	inactive: 0.039

A few values from the entries so far:
CD80 (UniProt P33681) – log2 fold change [4]: inactive: 0.086
CD53 (UniProt P19397) – log2 fold change [7]: inactive: 0.012
